Values from PubChem BioAssay AID1259254 (NCATS, 2017)
The deposit covers about 59,000 reagents; this is a random part of them. Of all reagents, about 1,550 (2.6%) were called active. 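G2 share is only a proxy for re-replication; each gene was hit by three separate siRNAs, and active genes were retested.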 A number with no mark means an inactive call. The numbers tell different reagents against one gene apart. Further read-outs or replicates are left out here. Reagent sequences are not shown. Not given: the amount of reagent.

- Test: 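Genome-wide screen for genes that prevent DNA re-replication in cancer cells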 (primary screen)
- System: human HCT116 colorectal cancer cells
- Reagents: single siRNA against human genes
- Time to read-out: 3 days
- Measured: 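Imaged Hoechst DNA stain sorts each cell into a cycle phase by DNA amount; per plate, G2 fraction set to 0% for non-targeting and 100% for GMNN siRNA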
- Scale: G2 robust z-score: higher = more G2 cells, more excess DNA replication
- Active means: 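An siRNA counts as active if its G2 robust z-score lies at least 5 MADs above the screen median; here such calls match roughly 38% of GMNN control or more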

G2 robust z-score, by target gene and reagent
CAMKMT (calmodulin-lysine N-methyltransferase): #1 0.151; #2 0.076; #3 -0.771
CHEK2 (checkpoint kinase 2): #1 -0.0913; #2 -1.08; #3 -0.947
GORASP2 (golgi reassembly stacking protein 2): #1 0.00694; #2 -0.0982; #3 -0.706
EPHX2 (epoxide hydrolase 2): #1 6.95 (active); #2 -0.884; #3 -0.57
ZNF445 (zinc finger protein 445): #1 0.898; #2 4.07; #3 6.08 (active)
GNB3 (G protein subunit beta 3): #1 -1.15; #2 0.731; #3 -0.901
KCNS1: #1 -1.17; #2 2.01; #3 0.0072

2 successive records from above, for reference:
G2 robust z-score, by target gene and reagent
CAMKMT (calmodulin-lysine N-methyltransferase): #3 -0.771
CHEK2 (checkpoint kinase 2): #1 -0.0913

The results go on.
G2 robust z-score, by target gene and reagent
DDX39B (DExD-box helicase 39B): #1 0.0152; #2 -0.922; #3 -0.964
EIF3F (eukaryotic translation initiation factor 3 subunit F): #1 0.995; #2 0.0695; #3 0.0459
ADSS2 (adenylosuccinate synthase 2): #1 -0.959; #2 0.611; #3 -1.15
OBSCN: #1 0.465; #2 0.837; #3 1.23; #4 0.17; #5 1.05; #6 -0.802
RAB28 (RAB28, member RAS oncogene family): #1 1.58; #2 -0.408; #3 -0.87
EGFLAM (EGF like, fibronectin type III and laminin G domains): #1 0.686; #2 3.52; #3 0.8
TRIM67 (tripartite motif containing 67): #1 -0.866; #2 1.23; #3 0.543
VNN2 (vanin 2): #1 -0.772; #2 0.377; #3 0.179
